Residue numbers refer to the chain shown, from its start. In names and notes the source's numbering stands. Results are given in words; binding and its absence hold for the method and conditions named. Binding can be weak; no strength is given. For some assays here: Where a sequence is shown, tags or fusion partners need not be part of it. For some assays here: In cells and extracts the contact can be indirect. Each block holds one binder with its values, some of them ahead of it.
Columns and labels:
[1] = molecular target: CHMP1B TAE/RRR (T178A181E184/RRR) fused to the Gal4 DNA-binding domain (human); assay: two-hybrid; yeast Y190; VP16 activation domain fusions (pHB18) against Gal4 DNA-binding domain fusions (pGBKT7); β-galactosidase activity in yeast extracts
[2] = molecular target: CHMP1B WT fused to the Gal4 DNA-binding domain (human); assay: as above
HA-CHMP1B (human) = assay: co-IP; 293T cells expressing HA-ESCRT-III; α-HA and protein G-agarose, 4°C; endogenous ULK3 detected by α-ULK3 blot

- binding [1]: binds
- binding [2]: binds
B1: ULK3 fused to the VP16 activation domain (enzyme, UniProt Q6PHR2 1-472)
chain: MAGPGWGPPRLDGFILTERLGSGTYATVYKAYAKKDTREVVAIKCVAKKSLNKASVENLLTEIEILKGIRHPHIVQLKDFQWDSDNIYLIMEFCAGGDLSRFIHTRRILPEKVARVFMQQLASALQFLHERNISHLDLKPQNILLSSLEKPHLKLADFGFAQHMSPWDEKHVLRGSPLYMAPEMVCQRQYDARVDLWSMGVILYEALFGQPPFASRSFSELEEKIRSNRVIELPLRPLLSRDCRDLLQRLLERDPSRRISFQDFFAHPWVDLEHMPSGESLGRATALVVQAVKKDQEGDSAAALSLYCKALDFFVPALHYEVDAQRKEAIKAKVGQYVSRAEELKAIVSSSNQALLRQGTSARDLLREMARDKPRLLAALEVASAAMAKEEAAGGEQDALDLYQHSLGELLLLLAAEPPGRRRELLHTEVQNLMARAEYLKEQVKMRESRWEADTLDKEGLSESVRSSCTLQ

- binding [2]: binds
B2: ULK3 V338D fused to the VP16 activation domain (enzyme, UniProt Q6PHR2 1-472)
chain: B1 chain with V338D

- binding (HA-CHMP1B (human)): binds
B3: endogenous ULK3 (enzyme, UniProt Q6PHR2 1-472)
chain: B1 chain

- binding [2]: binds
B4: ULK3 M434D fused to the VP16 activation domain (enzyme, UniProt Q6PHR2 1-472)
chain: B1 chain with M434D

Source: article PMC4475061
